According to doi:10.1101/2024.11.13.623393:
Substitutions are numbered along the chain they refer to. No constants are given. Whether binding was seen depends on the method and setting. In cells and extracts the contact can be indirect. Some entries that bind do so weakly or less than the wild type. Where a sequence is shown, tags or fusion partners need not be part of it.

T1: Nse3-3xSTII (S. cerevisiae) (UniProt Q05541)
T1 sequence: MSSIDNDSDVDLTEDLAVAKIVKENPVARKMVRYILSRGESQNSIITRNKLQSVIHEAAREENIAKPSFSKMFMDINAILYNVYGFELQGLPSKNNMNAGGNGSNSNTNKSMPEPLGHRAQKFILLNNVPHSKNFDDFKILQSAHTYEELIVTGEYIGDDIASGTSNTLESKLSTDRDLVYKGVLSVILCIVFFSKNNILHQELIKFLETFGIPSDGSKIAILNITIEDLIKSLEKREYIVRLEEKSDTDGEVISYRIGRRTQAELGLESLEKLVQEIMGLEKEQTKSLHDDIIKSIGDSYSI

B1: Smc5-13xMYC (protein, UniProt Q08204 1-1093)
chain: MTSLIDLGRYVERTHHGEDTEPRSKRVKIAKPDLSSFQPGSIIKIRLQDFVTYTLTEFNLSPSLNMIIGPNGSGKSTFVCAVCLGLAGKPEYIGRSKKVEDFIKNGQDVSKIEITLKNSPNVTDIEYIDARDETIKITRIITRSKRRSDYLINDYQVSESVVKTLVAQLNIQLDNLCQFLSQERVEEFARLKSVKLLVETIRSIDASLLDVLDELRELQGNEQSLQKDLDFKKAKIVHLRQESDKLRKSVESLRDFQNKKGEIELHSQLLPYVKVKDHKEKLNIYKEEYERAKANLRAILKDKKPFANTKKTLENQVEELTEKCSLKTDEFLKAKEKINEIFEKLNTIRDEVIKKKNQNEYYRGRTKKLQATIISTKEDFLRSQEILAQTHLPEKSVFEDIDIKRKEIINKEGEIRDLISEIDAKANAINHEMRSIQRQAESKTKSLTTTDKIGILNQDQDLKEVRDAVLMVREHPEMKDKILEPPIMTVSAINAQFAAYLAQCVDYNTSKALTVVDSDSYKLFANPILDKFKVNLRELSSADTTPPVPAETVRDLGFEGYLSDFITGDKRVMKMLCQTSKIHTIPVSRRELTPAQIKKLITPRPNGKILFKRIIHGNRLVDIKQSAYGSKQVFPTDVSIKQTNFYQGSIMSNEQKIRIENEIINLKNEYNDRKSTLDALSNQKSGYRHELSELASKNDDINREAHQLNEIRKKYTMRKSTIETLREKLDQLKREARKDVSQKIKDIDDQIQQLLLKQRHLLSKMASSMKSLKNCQKELISTQILQFEAQNMDVSMNDVIGFFNEREADLKSQYEDKKKFVKEMRDTPEFQSWMREIRSYDQDTKEKLNKVAEKYEEEGNFNLSFVQDVLDKLESEIAMVNHDESAVTILDQVTAELRELEHTVPQQSKDLETIKAKLKEDHAVLEPKLDDIVSKISARFARLFNNVGSAGAVRLEKPKDYAEWKIEIMVKFRDNAPLKKLDSHTQSGGERAVSTVLYMIALQEFTSAPFRVVDEINQGMDSRNERIVHKAMVENACAENTSQYFLITPKLLTGLHYHEKMRIHCVMAGSWIPNPSEDPKMIHFGETSNYSFD
B2: Smc5-2KE-13xMYC (protein, UniProt Q08204 1-1093)
chain: B1 chain with K624E, K631E

Molecular target: T1, Nse3-3xSTII (S. cerevisiae)
Experiment: co-IP

Binder	binding
B1	binds
B2	binds
